## Results of single-concentration screens

Measurements from “University of Dundee, Small-Polar-MMV Screening Library” (2021), ChEMBL document CHEMBL3988442.

Each number is a percent effect as filed. The controls that fix the scale are not given in the record; negative values are as filed. This is an unselected part of the compounds tested.

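Assay of Toxoplasma gondii numbers, read through their beta-galactosidase reporter with a colour substrate. Tested at 10 µM. Higher reads as fewer parasites (inferred from which compounds were picked for retests). Size under these conditions: about 67,000 compounds, about 260 of them at 50% or above in at least one test.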

| structure | Percent Effect |
|---|---|
| `CCCNC(=O)CCNC(=O)Cc1nc(-c2ccco2)oc1C` | 0.9912 |
| `COCCN(C)C(=O)c1cc2c(s1)CCN2C(=O)C1CC1` | 2.65 |
| `COCCCNC(=O)c1cc(OC)c2ccoc2c1` | 17.05 |
| `CCC(=O)N1CCc2[nH]cnc2C12CCN(CC1CCOC1)CC2` (stereo not given) | -45.96 |
| `O=C(c1cccnc1N1CCOCC1)N1CCCC(n2cccn2)C1` (stereo not given) | -42.19 |
| `CN1CCN(c2cnn(CCn3cccn3)c(=O)c2)CC1` | -0.964 |
| `Cc1cc(F)cc(CN2CCCn3nc(CNS(C)(=O)=O)cc3C2)c1` | 9.97 |
| `CN(C)C(=O)Cc1ccc(NC(=O)NC2CCCC2)cc1` | 3.479 |
| `O=C(O)C(F)(F)F.c1csc(CN2CCc3onc(Cn4cccc4)c3C2)c1` | -1.315 |
| `CN1CCC(Cc2noc(CC3CC3)n2)CC1` | 8.724 |
| `O=C1CC(c2ccccc2)C2(CCN(C(=O)c3cnccn3)CC2)N1` (stereo not given) | -9.633 |
| `[H][C@]12CC[C@]([H])(CN(Cc3[nH]cnc3C)C1)N(C(=O)CCn1cncn1)C2` | -3.021 |
| `Cc1cc(C)n(CC(=O)NC(Cc2ccsc2)c2ccccn2)c(=O)n1.Cl` (stereo not given) | 35.3 |
| `O=S(=O)(c1cccs1)N1Cc2nc(COCC3CC3)oc2C1` | -5.226 |
| `Cn1cc(CCNC(=O)CCc2ccc3c(c2)OCO3)cn1` | 4.739 |
| `O=C(O)C(F)(F)F.O=C(c1cnccn1)N1CCOC2(CCN(Cc3ccsc3)CC2)C1` | 0.8547 |
| `COC(C(=O)N1CCN(Cc2noc(C)n2)CC1)c1ccccc1` (stereo not given) | -3.652 |
| `CC(O)CN1CCN(Cc2cccc(C#N)c2)CC1` (stereo not given) | -2.504 |
| `CN(C)Cc1nn(C)c2c1CCN(S(=O)(=O)c1cccs1)C2` | 1.885 |
| `O=S(=O)(Nc1ccc(N2CCOCC2)cc1)c1cccc(F)c1` | -4.756 |
| `O=C(C1CCCOC1)N1CCN(CC(F)(F)F)c2ccccc21` (stereo not given) | -0.5093 |
| `CC1CCc2nc(O)c(C(=O)NCc3ccccc3F)cc2C1` (stereo not given) | -6.25 |
| `[H][C@@]12CN(Cc3ccc(C#N)cc3)C[C@]1([H])OCC(=O)N2` | -6.216 |
| `Cc1nc2c(NCC(C)N(C)c3ccccc3)ncnc2o1` (stereo not given) | -3.17 |
| `COc1nc2ccn(CCc3cc(O)nc(C)n3)c(=O)c2cc1C#N` | 4.937 |
| `CC(Cn1cccn1)NC(=O)NCc1ccc(S(N)(=O)=O)cc1` (stereo not given) | 14.24 |
| `O=C1CCC(C(=O)N2CCC(Cn3cc(C4CCCC4)nn3)CC2)=NN1` | -3.506 |
| `[H][C@@]12CCN(c3ncccn3)[C@]1([H])CC[C@@H](C(=O)N1CCCO1)O2` | -8.787 |
| `CCn1cc(CN(C)S(=O)(=O)c2ccc(Cl)cc2)cn1` | 4.304 |
| `[H][C@]12CC[C@@]([H])(C1)N(Cc1ccccc1OCCCN1CCN(C)CC1)C2` | 1.333 |
| `CCc1ccccc1Nc1noc2c1CN(C(=O)C1CCCO1)CC2` (stereo not given) | -14.5 |
| `CCn1ccnc1CN1CCCN(C(=O)c2cccc(C#N)c2)CC1` | -4.586 |
| `Cc1noc(CCCC(=O)NC(C)c2ccc(Cl)s2)n1` (stereo not given) | 11.13 |
| `c1ccc(-n2ncc(CNCC3CCCN3c3cccnn3)n2)cc1` (stereo not given) | 0.4394 |
| `N#Cc1ccc(OCC(O)CN2CCN(c3nccs3)CC2)cc1` (stereo not given) | 13.72 |
| `CC(=O)c1cc(C(=O)N2CCC(CC(C)C)C2)c(=O)[nH]c1C` (stereo not given) | -3.123 |
| `Cc1nonc1CN(C)Cc1nc(-c2cccc(F)c2F)oc1C` | 4.313 |
| `CCOc1nnc(CN2CCC(c3nc4ccccc4[nH]3)CC2)s1` | -2.259 |
| `Cc1noc(CNC2CCCN(Cc3noc(C4CC4)n3)C2)n1` (stereo not given) | 17.45 |
| `Cc1ccccc1CN1CCC2(CC1)CN(S(=O)(=O)c1ccccc1)C2.O=C(O)C(F)(F)F` | 12.7 |
| `Cc1cc(C)n(CCCN(CCN2CCOCC2)Cc2ccco2)n1` | -17.38 |
| `COCCC(=O)N1C[C@@H](O)[C@H](N2CCN(c3ccccc3)CC2)C1` | 23.83 |
| `COc1coc(CN2CCCC(CCc3ccc(F)cc3)C2)cc1=O` (stereo not given) | 5.826 |
| `CCCc1nnc(NC2CCN(C3CCSCC3)CC2)o1` | 1.598 |
| `CCCOc1c(CNC2CCSC2)cccc1OC` (stereo not given) | 0.9387 |
| `COc1ccccc1-n1c(CC(C)C)nnc1SCC(=O)O` | 17.88 |
| `[H][C@@]12CS(=O)(=O)C[C@]1([H])N(C(=O)c1cc(Cl)no1)CCN2C(=O)C(C)C` | -2.843 |
| `CCC1c2ccsc2CCN1C(=O)NCc1cc(C)on1` (stereo not given) | 7.355 |
| `CCc1ncncc1C(=O)N1CCOC(c2nc(C)n[nH]2)C1` (stereo not given) | -0.3937 |
| `Cc1ccc(C(=O)NC2CCCN(C)C2)c(=O)[nH]1` (stereo not given) | -6.706 |
| `COc1c(CNCCNC(=O)c2ccc(C)cc2)c(C)nn1C` | 7.754 |
| `COc1ccc(OC)c2c(C)cc(N(C)Cc3cc(C)on3)nc12` | 16.22 |
| `CSCc1nc(CNC(=O)C2CCCN(CC(N)=O)C2)cs1` (stereo not given) | 15.01 |
| `CNC(=O)NC(=O)CNc1cc(C(=O)OC)cc(C(F)(F)F)c1` | -3.58 |
| `CO[C@H]1CCN(c2ncccn2)[C@H]1Cc1ccccc1` | -16.62 |
| `CC1(c2[nH]ncc2C(N)=O)CCN(S(=O)(=O)c2ccccc2)CC1` | -3.74 |
| `O=C(c1cccc(F)c1)N1CCc2ncc(Cn3cccn3)n2CC1` | 5.965 |
| `CC(c1ncc(C(C)(C)C)o1)N1CCN(Cc2ccncc2)CC1` (stereo not given) | -16.62 |
| `COCCn1c(C(=O)NCC(C)C(=O)O)cc2ccccc21` (stereo not given) | 0.8115 |
| `CNC(=O)NC(=O)CN1CCCC(Cc2ccccc2OC)C1` (stereo not given) | 2.548 |
| `CC(C)c1nc2n(n1)CC(NCCc1cccs1)CC2` (stereo not given) | -5.489 |
| `Cc1noc(Cl)c1CCC(=O)N1CCC(Nc2cccnn2)CC1` | -0.5339 |
| `Cn1cc(-c2ncnc3c2CCN(C(=O)c2cnccn2)CC3)cn1` | 16.41 |
| `Cc1cccc(C(Nc2nccc(-c3ccc(C)nc3C)n2)C2CC2)n1` (stereo not given) | 17.98 |
| `CC(C)c1nn(C)c(N(C)C)c1CNCc1cccc(CN(C)C)c1.Cl` | -1.318 |
| `CN(C)CCNc1cc(-c2ncccc2O)c2cc[nH]c2n1` | 2.847 |
| `Cc1ccsc1C(=O)N1CCC2(CC1)C(=O)N(C)CCN2CC1CC1.O=C(O)C(F)(F)F` | 13.85 |
| `COc1cccc(COC(C)C(=O)NC2CCN(CC(N)=O)CC2)c1` (stereo not given) | -8.348 |
| `O=S(=O)(NCc1ccccc1)N(Cc1ccccn1)CC1CCCO1` (stereo not given) | -39.16 |
| `Cc1ccc2oc(C(=O)N3CCCC(n4nc(C)nc4C)C3)cc2n1` (stereo not given) | 5.321 |
| `CCN(c1ccc(C(=O)NCCCN2CCOCC2)cc1)S(=O)(=O)CC` | 1.357 |
| `COCc1cn(CC2CCN(Cc3c(C)[nH]c4ccccc34)CC2)nn1` | -15.03 |
| `CC(C)NC(=O)c1cc(Br)cc(S(=O)(=O)N2CCOCC2)c1F` | 9.673 |

Repeated from the top, 7 entries:

For CCCNC(=O)CCNC(=O)Cc1nc(-c2ccco2)oc1C the result was 0.9912%.
For COCCN(C)C(=O)c1cc2c(s1)CCN2C(=O)C1CC1 the result was 2.65%.
For COCCCNC(=O)c1cc(OC)c2ccoc2c1 the result was 17.05%.
For CCC(=O)N1CCc2[nH]cnc2C12CCN(CC1CCOC1)CC2 (stereo not given) the result was -45.96%.
For O=C(c1cccnc1N1CCOCC1)N1CCCC(n2cccn2)C1 (stereo not given) the result was -42.19%.
For CN1CCN(c2cnn(CCn3cccn3)c(=O)c2)CC1 the result was -0.964%.
For Cc1cc(F)cc(CN2CCCn3nc(CNS(C)(=O)=O)cc3C2)c1 the result was 9.97%.